Where a name gives a salt, the structure may show the parent alone. The list shows a part of the results. Single values are uncertain here, since repeats match poorly.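 The cells were human embryonic kidney cells carrying a Renilla luciferase gene, driven by the HSV-TK promoter, on a plasmid put in briefly by transfection. This is the first-round screen of about ten thousand compounds, looking for ones that raise reporter output.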
Test system: HEK 293FT
Assay: log relative Renilla luciferase luminescence (reporter expression vs reference, reference not stated) (log (base not stated)); higher = higher recombinant reporter expression
Settings: 10 µM; time after transfection 48 h

Row | Compound | log
1 | COc1cc2c(cc1OC)-c1cc3nc4ccccc4nc3n1C(C)(C)C2 | -0.0675
2 | Cc1c(OCC(F)(F)F)ccnc1C[S+]([O-])c1nc2ccccc2[nH]1 (stereo unspecified) [Lansoprazole] | 0.0217
3 | CC1(C)CC(=O)C(C2C3=C(CC(C)(C)CC3=O)Oc3ccccc32)C(=O)C1 (stereo unspecified) | -0.134
4 | OCC(CO)N[C@H]1C[C@](O)(CO)[C@@H](O)[C@H](O)[C@H]1O [Voglibose] | 0.0465
5 | COc1ccc2[nH]c([S+]([O-])Cc3ncc(C)c(OC)c3C)nc2c1 (stereo unspecified) [Omeprazole] | -0.199
6 | CC(CCc1ccc(O)cc1)NCCc1ccc(O)c(O)c1 (stereo unspecified) [Dobutamine hydrochloride] | -0.00649
7 | Cc1cc(O)c2c(c1)C(=O)c1cc(O)cc(O)c1C2=O [Emodin] | 0.0529
8 | CC(=O)CCCCn1c(=O)c2c(ncn2C)n(C)c1=O [Pentoxifylline] | 0.0956

Test system: HEK 293FT
Assay: as above
Settings: 10 µM; time after transfection 48 h
Remark: another data set of the same source
Experimental: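 HEK 293FT cells transiently transfected with pRL-TK (Renilla luciferase) were treated with compounds at 10 uM and luminescence was read about 42 h later. Values are log relative Renilla luminescence (log base and reference not stated). Single-pass screen; 2080 natural products library.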

Row | Compound | log
9 | COc1ccccc1/C=C/C(=O)c1c(OC)cc(O)c(OC)c1O [2',4'-Dihydroxy-2,3',6'-trimethoxychalcone] | 0.0237
10 | COc1ccc2ccc(=O)oc2c1CC=C(C)C [Osthol] | 0.205
11 | CCCCCCCCCCCCCCCC(=O)O[C@H]1CC[C@]2(C)[C@H]3CC=C4[C@@H]5CC(C)(C)CC[C@]5(CO)CC[C@@]4(C)[C@]3(C)CC[C@H]2C1(C)C [Erythrodiol 3-palmitate] | -0.0153
12 | C=C[C@H]1[C@H](O[C@@H]2O[C@H](CO)[C@@H](O)[C@H](O)[C@H]2O)OC=C2C(=O)OCC[C@]21O [Swertiamarin] | -0.0564
13 | COc1ccc(-c2oc3c(OC)c(O)c(OC)c(O)c3c(=O)c2OC)cc1 [Araneosol] | -0.0599
14 | COc1ccc(-c2cc(=O)c3c(O)cc(O)c(-c4cc(-c5cc(=O)c6c(O)cc(OC)cc6o5)ccc4OC)c3o2)cc1 [Sciadopitysin] | -0.466
15 | C=Cc1ncc(OC)c2c1[nH]c1c(OC)cccc12 [Dehydrocrenatidine] | 0.046
16 | O=C(O)CCc1nccc2c1[nH]c1ccccc12 [Beta-Carboline-1-propanoic acid] | -0.186
17 | COc1cc(/C=C/C=O)cc(OC)c1O [Sinapaldehyde] | -0.0686
18 | C[C@@H]1[C@H]2COC(=O)[C@H](CO)[C@H]2C[C@@H]1O [4-Epialyxialactone] | -0.0445
19 | CC1(C)C=C(CO)[C@]2(C)[C@H]3CC=C4[C@@H]5[C@H](O)C(C)(C)CC[C@]5(C(=O)O)CC[C@@]4(C)[C@]3(C)CC[C@@H]12 [Sculponeatic acid] | -0.422
20 | C[C@@H]1C[C@H]2O[C@@]3(O[C@@H]2C(C)(C)O)[C@H](O)[C@@]2(C)[C@@H]4CC[C@H]5C(C)(C)[C@@H](O[C@@H]6OC[C@H](O)[C@H](O)[C@H]6O)CC[C@@]56C[C@@]46CC[C@]2(C)[C@@H]13 [Cimiracemoside C] | 0.0541
21 | CCOC(=O)c1ccc(O)cc1 [Ethylparaben] | -0.00168
22 | CC(O)(CO)C(O)CO (stereo unspecified) [2-methylbutane-1,2,3,4-tetrol] | -0.265
23 | C=C1CC[C@@H]2[C@](C)(CCC[C@]2(C)C(=O)O)[C@H]1CC/C(C)=C/CO [Isocupressic acid] | 0.102
24 | COc1c(O)c(=O)n2c3ccccc3c3ccnc1c32 [5-Hydroxy-4-methoxycanthin-6-one] | 0.252
25 | C[C@@H]1O[C@@H](OC[C@H]2O[C@@H](Oc3c(-c4ccc(O)cc4)oc4cc(O)cc(O)c4c3=O)[C@H](O)[C@@H](O)[C@@H]2O)[C@H](O)[C@H](O)[C@H]1O [Nicotiflorin] | 0.0364

Row | Compound | log
26 | O=C1C=C[C@]2(O)CCO[C@@H]2C1 [Cleroindicin F] | -0.0297
27 | CC(=O)O[C@H]1C(=O)[C@@]2(CO)[C@H]([C@H](OC(=O)c3ccccc3)[C@]3(O)C[C@H](O)C(C)=C1C3(C)C)[C@]1(OC(C)=O)CO[C@@H]1C[C@@H]2O [19-Hydroxybaccatin III] | -0.0147
28 | COn1cc(CC[C@@H](C)CO)c2ccccc21 [Paniculidine B] | -0.397
29 | CC(=O)[C@H]1CC[C@H]2[C@@H]3CC=C4C[C@@H](O)CC[C@]4(C)[C@H]3CC[C@]12C [Pregnenolone] | -0.0636
30 | CC1C(=O)C23CC1CCC2C1(COC3=O)C(=O)C=CC(C)(C)C1C=O (stereo unspecified) [Epieriocalyxin A] | -0.0106
31 | Cc1cc(O)c2c(c1)C(=O)c1cc(O)cc(O)c1C2=O [Emodin] | 0.11
32 | COc1cc(OC)c2ccc(=O)oc2c1CC=C(C)C [Coumurrayin] | 0.158
33 | CCCCCc1cc(=O)c2ccccc2n1C [1-Methyl-2-pentyl-4(1H)-quinolinone] | -0.144
34 | Oc1ccc(-c2oc3cc(O)cc4c3c2-c2cc(O)cc3c2[C@H](c2cc(O)cc5c2[C@@H]4[C@H](c2ccc(O)cc2)O5)[C@@H](c2ccc(O)cc2)O3)cc1 [Caraphenol A] | -0.163
35 | Cc1cc(O)c2c(c1)C(=O)c1cccc(O)c1C2=O [Chrysophanol] | 0.0737
36 | C=C(C)[C@@H]1CC[C@]2(C)CC[C@]3(C)[C@H](CC[C@@H]4[C@@]5(C)CC[C@H](O)C(C)(C)[C@@H]5CC[C@]43C)[C@@H]12 [Lupeol] | -0.172
37 | C[C@@H]1CC[C@]2(C(=O)O)CC[C@]3(C)C(=CC[C@@H]4[C@@]5(C)C(CO)=CC(C)(C)[C@@H]5CC[C@]43C)[C@@H]2[C@]1(C)O [Hyptadienic acid] | -0.334
38 | CC(=O)c1ccc(O)cc1O [2',4'-Dihydroxyacetophenone] | -0.0982
39 | O=C1C[C@@H](O)[C@]2(O)CCO[C@@H]2C1 [Cleroindicin D] | -0.083
40 | COc1cc(C[C@H]2CO[C@H](c3ccc(O)c(OC)c3)[C@H]2CO)ccc1O [(+)-Lariciresinol] | -0.282
41 | CC(=O)O[C@H]1CC[C@@]2(C)C(CC[C@]3(C)[C@@H]2CCC2=C4CC(C)(C)CC[C@]4(C)CC[C@]23C)C1(C)C (stereo partly specified) [delta-Amyrin acetate] | -0.14
